Test system: naturally aged mice
Experiment: Anti-aging evaluation in naturally aged mice, Example 31, Table 55;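 further: Vehicle-dosed control mice received solution alone at matching volume, values compare test-compound-treated aged mice against that control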
Format: in vivo, mouse
Conditions: untreated = 100%

In the case of `COc1cc(OC)cc(N(CCNC(C)C)c2ccc3ncc(-c4cnn(C)c4)nc3c2)c1` [LX-1903, Erdafitinib], the “Kidney Agtr1a mRNA” value is reported as 78%.

— patent publication US20260306460A1, “COMPOSITION FOR REMOVING AND INHIBITING SENESCENT CELLS, AND USES THEREOF” (LIFECEUTIX CO., LTD., priority 2023, published 2026)
